## Results of single-concentration screens

Each number is a percent effect as filed. The controls that fix the scale are not given in the record; negative values are as filed. The compounds are a random part of those screened.

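Assay of Toxoplasma gondii numbers, read through their beta-galactosidase reporter with a colour substrate. Tested at 50 µM. The record gives no direction; the compounds picked for IC50 retests had high values, so higher reads as fewer parasites. About 18,000 compounds were tested under these conditions; 0.94% (about 170) showed 50% or more at least once.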

Compound,Percent Effect
COCCNC(=O)c1cccc(NC(=O)C(C)(C)C)c1,0.8054
Cn1ccc(CNC(=O)N[C@H](CO)c2ccccc2)c1,1.889
O=C(NCc1cccnc1)NC1CCCC1,5.172
N[C@@H]1CC(=O)N(C2CC2)[C@H]1c1cccnc1,17.17
Cc1ncc(S(C)(=O)=O)c(NC2CCOCC2)n1,-1.563
Cc1ccsc1CN(C)C(=O)c1ccc(=O)n(C)n1,-0.6946
Cc1nn(CCN(C)c2ccccc2)c(N)c1C#N,-1.366
Cc1cc(Cn2c(=O)[nH]c3ccccc3c2=O)no1,-7.422
Cn1cnc(S(=O)(=O)NCC(N)c2ccccc2)c1Cl (stereo not shown),-1.915
c1cn(C2CCNCC2)nn1,25.5
Cc1noc(C(C)N2CCN(S(=O)(=O)N(C)C)CC2)n1 (stereo not shown),1.734
Cc1noc(C)c1CN1CCC(C(=O)NCCO)CC1,-18.59
CS(=O)(=O)NCCNC(=O)C1CCN(S(C)(=O)=O)CC1,-10.21
OCCN1CCN(c2nc(-c3ccccc3)no2)CC1,-2.915
Cc1cc(=O)cc(C(=O)NCCc2cn[nH]c2)o1,12.82
CCOCCOC(=O)C1COCCN1CC (stereo not shown),4.401
CNCc1cccc(-n2cccn2)c1,10.65
Cc1cc(S(=O)(=O)N2CCCC2CN)sc1C (stereo not shown),13
COCCN1CC(C(=O)NCCC(C)C)CC1=O (stereo not shown),-4.369
CC(C)N(C)S(=O)(=O)NCCCN(C)c1ccccc1,0.05674
Cn1c(=O)oc2ccc(CC#N)cc21,20.28
COCc1nc2n(n1)CCCC2N (stereo not shown),3.768
CC1CCCCN1C(=O)CN1CCNCC1 (stereo not shown),-19.27
CC(C)(C)OC(=O)N1CCN(c2ccnc(N)c2)CC1,-5.46
Cc1noc(C)c1CNC1CCN(S(C)(=O)=O)CC1,-28.44
Cc1nc(CN)cc(N2CCC(N3CCCC3)CC2)n1,1.193
CCC(C)(C)OCC(O)CN1CCN(C)CC1 (stereo not shown),-1.734
CN(CC(=O)NCc1cccs1)Cc1cc[nH]n1,-1.953
C1CC(OC2CCOC2)CCN1 (stereo not shown),3.071
CC(=O)Nc1cc(S(=O)(=O)NCCN(C)C)ccc1C,12.19
Cc1nn(CC(=O)N(C)C)c(=O)c2ccccc12,-2.492
CCOc1cccc(CNC(=O)C2CCS(=O)(=O)C2)c1 (stereo not shown),-18.87
COCCn1nc(-c2nc(CC(C)C)no2)ccc1=O,-8.11
CC(C)CCNC(=O)Cn1c(=O)oc2ccccc21,18.14
Cc1ccc(OCC(=O)NC2=NCCS2)cc1C,-1.537
CN(Cc1ccc(Oc2ccccc2)cc1)C(=O)CN,4.215
CN(CCNC(=O)[C@@H](N)CC1CCCCC1)S(C)(=O)=O,1.234
Cc1nnc(CNC(=O)CSc2ccncc2)o1,0.1868
CC(c1ccncc1)N(C)CCC(=O)N1CCOCC1 (stereo not shown),-6.746
CCc1cnccc1C(=O)NCCc1cncn1C,-2.114
COCCN(C)CCNC(=O)c1cc2ccccc2[nH]1,-6.381
CCOCCNCCOCc1ccccc1,6.299
CNc1nnc(SCc2csc(CC(=O)N(C)C)n2)s1,-4.617
Cc1cc(C(=O)N(C)CC(=O)NC2CC2)c(C)o1,-10.38
CC(=O)Nc1ccc(N2CCCCC2)nc1,-4.358
CCC(CC)CN(CCC#N)C(=O)c1cccnc1,25.84
CN(CC1COc2ccccc2O1)C(=O)C1CCC1 (stereo not shown),3.35
CC(N)Cc1nc(-c2ccccc2)no1 (stereo not shown),10.74
O=C(NCc1cccnc1)N1CCc2ccccc2C1,-6.825
O=C(c1cccc(-n2cccn2)n1)N1CCCC1,-12.87
CCC(CO)(CO)NCc1csc(-c2cccs2)n1,-3.208
CCc1nc(C)ccc1OCC(=O)N1CCOCC1,-13.88
CCC(NC(=O)Cn1cc(Cl)c(C)n1)c1ccnn1C (stereo not shown),-7.451
CC(=O)Nc1ccc(CN2CCCOC(C)C2)cc1 (stereo not shown),52.96
Cc1nnc(SCCCNC(=O)C2CNCCO2)s1 (stereo not shown),-6.344
Cc1cnc(CNS(=O)(=O)c2cc(Br)cnc2N)o1,-2.819
CCCS(=O)(=O)N1C[C@H](c2ccc(OC)cc2)[C@@H](N)C1,5.208
Cc1noc(C)c1S(=O)(=O)NCC1(N)CCCCC1,-11.05
CCn1c(SCC(=O)NC2CC2)nc2ccsc2c1=O,5.604
Cc1cc(C)n2c(SCCC(N)=O)nnc2n1,-1.636
COCC[C@]1(O)CCN(Cc2ncccc2C)C[C@H]1C,-0.08729
CC(C(=O)N(C)Cc1cc(Br)cs1)n1cncn1 (stereo not shown),-4.302
O=C1Nc2ccccc2NC12CCCC2,1.272
CC(C)c1ncc(C(=O)N2C[C@@H]3CCCN[C@@H]3C2)cn1,4.296
CC1CCCN(C2=NS(=O)(=O)c3ccccc32)C1 (stereo not shown),-7.678
CN1CC=C(CCN)CC1,10.76
Cc1nnc2ccc(C(=O)NCCN3CCCC3)cn12,11.9
Cc1ccc(OCC(O)CNC(C)C)cc1 (stereo not shown),1.011
Cc1csc(CCNC(=O)CNC(=O)C(C)(C)C)n1,-6.646
Nc1cnccc1N1CCOCC1,1.732
CCOc1ccc(C(=O)Nc2ccnc(C)c2)cn1,-9.195
Cc1ncsc1CCCNC(=O)CC1C=CS(=O)(=O)C1 (stereo not shown),-11.31

6 of the entries, repeated:

| Compound | Percent Effect |
|---|---|
| `CC(=O)Nc1ccc(N2CCCCC2)nc1` | -4.358 |
| `CCOCCOC(=O)C1COCCN1CC` (stereo not shown) | 4.401 |
| `CCC(C)(C)OCC(O)CN1CCN(C)CC1` (stereo not shown) | -1.734 |
| `Cc1noc(C(C)N2CCN(S(=O)(=O)N(C)C)CC2)n1` (stereo not shown) | 1.734 |
| `O=C(c1cccc(-n2cccn2)n1)N1CCCC1` | -12.87 |
| `OCCN1CCN(c2nc(-c3ccccc3)no2)CC1` | -2.915 |

The values are deposited in ChEMBL (CHEMBL3988442, “University of Dundee, Small-Polar-MMV Screening Library” (2021)).